Results are given in words; binding and its absence hold for the method and conditions named. Some binding calls cover weakened binding; strength is not graded here. Where a sequence is shown, tags or fusion partners need not be part of it.
Molecular target: T1, Saccharomyces cerevisiae Fig4p (Saccharomyces cerevisiae) (UniProt P42837)
T1 sequence (looked up): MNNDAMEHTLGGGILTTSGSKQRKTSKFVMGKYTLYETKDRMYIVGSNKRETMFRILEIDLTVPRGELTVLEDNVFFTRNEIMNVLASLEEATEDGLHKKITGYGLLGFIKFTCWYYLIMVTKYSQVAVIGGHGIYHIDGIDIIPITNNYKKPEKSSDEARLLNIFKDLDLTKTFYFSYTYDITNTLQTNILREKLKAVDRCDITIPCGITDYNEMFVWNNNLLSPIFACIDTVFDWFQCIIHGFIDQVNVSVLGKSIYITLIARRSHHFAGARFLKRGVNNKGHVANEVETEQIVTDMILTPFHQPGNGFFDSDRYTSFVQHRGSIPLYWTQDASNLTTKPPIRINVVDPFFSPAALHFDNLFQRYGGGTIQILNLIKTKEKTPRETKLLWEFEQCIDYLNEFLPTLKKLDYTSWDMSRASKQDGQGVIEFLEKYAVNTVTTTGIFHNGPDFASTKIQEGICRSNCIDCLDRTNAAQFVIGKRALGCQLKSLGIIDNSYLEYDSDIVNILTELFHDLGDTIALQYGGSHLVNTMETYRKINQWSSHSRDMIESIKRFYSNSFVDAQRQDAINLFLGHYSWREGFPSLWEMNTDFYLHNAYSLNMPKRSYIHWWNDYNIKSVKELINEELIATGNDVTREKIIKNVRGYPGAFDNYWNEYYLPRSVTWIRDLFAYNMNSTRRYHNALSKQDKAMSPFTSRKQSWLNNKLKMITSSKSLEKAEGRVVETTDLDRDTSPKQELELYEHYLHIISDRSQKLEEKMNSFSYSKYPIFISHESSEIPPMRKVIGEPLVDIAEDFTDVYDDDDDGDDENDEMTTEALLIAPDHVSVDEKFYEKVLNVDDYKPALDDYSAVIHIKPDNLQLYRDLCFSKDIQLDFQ
Assay: yeast two-hybrid

binding: binds
B1: Saccharomyces cerevisiae Vac14p (other)
chain: MEKSIAKGLSDKLYEKRKAAALELEKLVKQCVLEGDYDRIDKIIDELCRDYAYALHQPMARNAGLMGLAATAIALGINDVGRYLRNILPPVLACFGDQNDQVRFYACESLYNIAKIAKGEILVYFNEIFDVLCKISADTENSVRGAAELLDRLIKDIVAERASNYISIVNNGSHGLLPAIKTDPISGDVYQEEYEQDNQLAFSLPKFIPLLTERIYAINPDTRVFLVDWLKVLLNTPGLELISYLPSFLGGLFTFLGDSHKDVRTVTHTLMDSLLHEVDRISKLQTEIKMKRLERLKMLEDKYNNSSTPTKKADGALIAEKKKTLMTALGGLSKPLSMETDDTKLSNTNETDDERHLTSQEQLLDSEATSQEPLRDGEEYIPGQDINLNFPEVITVLVNNLASSEAEIQLIALHWIQVILSISPNVFIPFLSKILSVLLKLLSDSDPHITEIAQLVNGQLLSLCSSYVGKETDGKIAYGPIVNSLTLQFFDSRIDAKIACLDWLILIYHKAPNQILKHNDSMFLTLLKSLSNRDSVLIEKALSLLQSLCSDSNDNYLRQFLQDLLTLFKRDTKLVKTRANFIMRQISSRLSPERVYKVISSILDNYNDTTFVKMMIQILSTNLITSPEMSSLRNKLRTCEDGMFFNSLFKSWCPNPVSVISLCFVAENYELAYTVLQTYANYELKLNDLVQLDILIQLFESPVFTRMRLQLLEQQKHPFLHKCLFGILMIIPQSKAFETLNRRLNSLNIWTSQSYVMNNYIRQRENSNFCDSNSDISQRSVSQSKLHFQELINHFKAVSEEDEYSSDMIRLDHGANNKSLLLGSFLDGIDEDKQEIVTPISPMNEAINEEMESPNDNSSVILKDSGSLPFNRNVSDKLKK
notes: 880 amino acid polypeptide; In the Western blot it is the endogenous protein of yeast cell extracts; also called Vac14 yeast; YLR386W product

— patent publication US20050142561A1 (published 2005)
